Test results from PubChem BioAssay AID504467 (National Center for Advancing Translational Sciences (NCATS), 2011).
In all, about 330,000 compounds went through this assay and about 7,700 (2.3%) were called active. This list was built around the results that the source calls inconclusive (neither active nor inactive); the mix of calls is not that of the screen. The call rests on the fitted dose curve; in most records, active means well fitted inhibition curve with a large enough effect; inconclusive means small, poorly fitted or top-dose-only effect, or effect the other way; inactive means flat fitted curve, though single readings scatter. A potency beside an inconclusive call is a rough fit, not a confirmed value.

Assay: qHTS screen for small molecules that inhibit ELG1-dependent DNA repair in human embryonic kidney (HEK293T) cells expressing luciferase-tagged ELG1; further: nearly all actives have a fitted effect of over 55% in size
Conditions: HEK293T ELG1-luciferase reporter, luminescence, 16 h, DNA damage induced by 5-fluorouridine; activity change, negative = inhibition: at 46.1 µM (top of the series)
Procedure, shortened: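 Luminescence from the luciferase reporter, measured 30 min after ONE-Glo reagent at room temperature, was the read-out. Beforehand, 2,000 cells per well were exposed for 16 hr at 37 °C to 5-fluorouridine together with compound or vehicle.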
On the % scale 0 is the no-effect control and ±100 the full control effect; potency means the concentration at half of the fitted maximal effect.

Row | SMILES | activity change, negative = inhibition | Potency
1 | Cc1cccc(C(=O)Nc2cccc(Br)c2)c1[N+](=O)[O-] | inactive: -7.16% | 
2 | C/C(=N\Nc1cc(-c2ccccc2)nc(-c2ccccc2)n1)c1ccc(O)c(C)c1 |  | inconclusive: 25.9 µM [inhibitor, partial curve, poor fit]
3 | O=C(Nc1ccc(S(=O)(=O)N2CCN(Cc3ccccc3)CC2)cc1)c1cnccn1 |  | inconclusive: 1.46 µM [inhibitor, partial curve]
4 | Cc1ccc2c(c1)[nH]c1c(=O)n(CCCN3CCOCC3)cnc12 |  | inconclusive: 11.6 µM [activator, partial curve, poor fit]
5 | Cn1cnnc1SCC(=O)Nc1sc2c(c1C#N)CCCCC2 |  | inconclusive: 20.6 µM [activator, single point]
6 | COc1ccc(N2C(=O)CCC(C(=O)N(C)CCc3ccccn3)C2c2ccc(OC)c(OC)c2)cc1 (stereo unspecified) |  | inconclusive: 6.51 µM [inhibitor, single point]
7 | O=C(NCc1ccccc1)c1ccc(OCC2CCCO2)cc1 (stereo unspecified) |  | inconclusive: 13 µM [activator, partial curve]
8 | C=CCn1c(C)cc(C(=O)COc2ncnc3sccc23)c1C |  | inconclusive: 1.64 µM [activator, partial curve]
9 | CCOc1ccccc1N(C)C(=O)C1CCN(S(=O)(=O)c2cccc3nonc23)CC1 |  | inconclusive: 20.6 µM [inhibitor, single point]
10 | CCOc1cc(Cl)c(S(=O)(=O)NCCCn2ccnc2)cc1Cl |  | inconclusive: 8.2 µM [inhibitor, partial curve]
11 | CC(C)(C)c1ccc(C(=O)Nc2nnc(SCC(=O)NCC3CCCO3)s2)cc1 (stereo unspecified) |  | inconclusive: 0.651 µM [activator, partial curve]
12 | O=C(CCN1C(=O)C2C3C=CC(C3)C2C1=O)NCCc1ccccc1 (stereo unspecified) |  | inconclusive: 14.6 µM [activator, partial curve, poor fit]
13 | CCOC(=O)c1c(NC(=S)Nc2ccc(OCC)cc2)sc2c1CCN(C)C2 |  | inconclusive: 16.4 µM [activator, single point]
14 | CN(C)C(CNC(=O)c1ccc2nc[nH]c2c1)c1ccccc1 (stereo unspecified) |  | inconclusive: 20.6 µM [activator, single point]
15 | CCOC(=O)c1c(C)[nH]c(C(=O)NNC(=O)c2ccc(Br)cc2)c1C |  | inconclusive: 14.6 µM [activator, partial curve, poor fit]
16 | CCn1cnc2c1c(=O)n(CC(=O)Nc1ccc(C(N)=O)cc1)c(=O)n2Cc1ccccc1 |  | active: 6.51 µM
17 | Cc1noc(C(=O)N2CCN(Cc3ccc4c(c3)OCO4)CC2)c1Cl |  | inconclusive: 6.51 µM [inhibitor, single point]
18 | O=C(Nc1ccc(OCc2ccccc2)cc1)c1ccccc1 |  | inconclusive: 2.31 µM [activator, full curve]
19 | COc1cc(C(=O)Nc2cccc(NC(=O)c3ccccc3)c2)cc(OC)c1OC |  | inconclusive: 20.6 µM [inhibitor, partial curve]
20 | Cn1ccnc1CN1CCCCC1C(=O)Nc1ccc(Oc2cccnc2)cc1 (stereo unspecified) | inactive: 3.02% | 
21 | COc1ccccc1-c1ccc2nnc(SC)n2n1 |  | inconclusive: 23.1 µM [activator, single point]
22 | NC(=O)c1sc2nc3c(c(-c4ccco4)c2c1N)CCCC3 |  | active: 9.2 µM

Part of the list above in order of heavy-atom count, rising:
Row | SMILES | activity change, negative = inhibition | Potency
10 | CCOc1cc(Cl)c(S(=O)(=O)NCCCn2ccnc2)cc1Cl |  | inconclusive: 8.2 µM [inhibitor, partial curve]
12 | O=C(CCN1C(=O)C2C3C=CC(C3)C2C1=O)NCCc1ccccc1 (stereo unspecified) |  | inconclusive: 14.6 µM [activator, partial curve, poor fit]
20 | Cn1ccnc1CN1CCCCC1C(=O)Nc1ccc(Oc2cccnc2)cc1 (stereo unspecified) | inactive: 3.02% | 

Additional results

Row | SMILES | activity change, negative = inhibition | Potency
23 | CCN(C(=O)c1ccc(S(=O)(=O)N2CCCC2)cc1)C1CCS(=O)(=O)C1 (stereo unspecified) | inactive: -3.15% | 
24 | Cc1ccc(S(=O)(=O)NC2CC(=O)N(c3ccc4c(c3)OCCO4)C2)cc1 (stereo unspecified) | inactive: 20.1% | 
25 | Cc1ccc(NC(=O)CN2C(=O)NC(C)(c3ccc(Cl)cc3)C2=O)cc1S(=O)(=O)N1CCOCC1 (stereo unspecified) |  | inconclusive: 29.1 µM [inhibitor, single point]
26 | COC(=O)c1c(NC(=O)CN2CCN(c3ccccc3Cl)CC2)sc(C)c1C |  | inconclusive: 32.6 µM [inhibitor, partial curve, poor fit]
27 | CC1CN(C(=O)c2cc(S(=O)(=O)N3CCCCC3)ccc2Cl)CC(C)O1 (stereo unspecified) | inactive: 6.26% | 
28 | CCn1c2ccccc2c2cc(NC(=O)CSc3nnc(-c4cccc(F)c4)o3)ccc21 | inactive: -9.45% | 
29 | C[n+]1ccc(/C=C/c2cccs2)cc1 |  | inconclusive: 29.1 µM [inhibitor, single point]
30 | O=C(CN1CCN(Cc2ccc3c(c2)OCO3)CC1)N1CCc2[nH]c3ccccc3c2C1 |  | inconclusive: 20.6 µM [inhibitor, partial curve, poor fit]
31 | CN(C)c1ccc(-c2n(C)c3ccccc3[n+]2C)cc1 |  | inconclusive: 0.651 µM [inhibitor, single point]
32 | Cc1ccc(NC(=O)CSc2nnc(CNC(=O)C34CC5CC(CC(C5)C3)C4)n2-c2ccc(F)cc2)cc1 |  | inconclusive: 20.6 µM [inhibitor, single point]
33 | C=C(C)Cn1c(CCCNC(=O)C(C)(C)C)nc2ccccc21 | inactive: -25.4% | 
34 | COCCCN1C(=O)/C(=C/c2ccc(CNS(=O)(=O)c3ccccc3)o2)C(C(=O)OC)=C1C | inactive: -2.89% | 
35 | CCCCCc1c(O)nc(SCCN(C)C)[nH]c1=O |  | inconclusive: 16.4 µM [activator, partial curve]
36 | N#C/C(=C\c1cn(CCOc2ccccc2)c2ccccc12)C(=O)NCC1CCCO1 (stereo unspecified) |  | inconclusive: 20.6 µM [inhibitor, single point]
37 | Cc1cccc(-c2nc(NCCCN3CCOCC3)c3ccccc3n2)c1 |  | inconclusive: 29.1 µM [inhibitor, single point]
38 | COC(=O)c1cn(CCOc2ccccc2OC)c2ccccc12 |  | inconclusive: 25.9 µM [inhibitor, partial curve, poor fit]
39 | CCOC(=O)c1sc(NC(=O)c2ccc(OC)cc2)nc1C |  | inconclusive: 18.3 µM [activator, single point]
40 | COc1ccc(C(=O)/C(=C\N(C)C)n2nc(C)cc2C)cc1 | inactive: 29.5% | 
41 | CCSc1nc2ccccc2n1C(=O)/C=C/c1ccc(OC)c(OC)c1 |  | inconclusive: 23.1 µM [inhibitor, single point]
42 | Cc1cccc(-c2nc3cc(NC(=O)C4CCCO4)ccc3o2)c1 (stereo unspecified) |  | inconclusive: 0.651 µM [activator, full curve]
43 | C=CCn1c(SCC(=O)N2CC(=O)Nc3ccccc32)nc2scc(-c3ccccc3)c2c1=O |  | active: 1.64 µM
44 | COCCn1c(=O)c2c(nc3n2CCCN3Cc2ccccc2)n(C)c1=O |  | inconclusive: 11.6 µM [inhibitor, partial curve]

Row | SMILES | activity change, negative = inhibition | Potency
45 | O=C(CSc1n[nH]c(=O)[nH]c1=O)Nc1ccccc1C(=O)c1ccccc1 |  | inconclusive: 4.61 µM [inhibitor, single point]
46 | CCN1CCN(C(=S)NC(=O)/C=C/c2cccs2)CC1 |  | inconclusive: 18.3 µM [activator, partial curve, poor fit]
47 | O=[N+]([O-])c1cccc(C(O)C23CN4CN(CN(C4)C2)C3)c1 (stereo unspecified) |  | inconclusive: 6.51 µM [inhibitor, single point]
48 | CCN(CC(=O)Nc1ccc(OC)cc1)C(=O)c1ccc2c(c1)NC(=O)C(C)S2 (stereo unspecified) | inactive: 22.7% | 
49 | O=C(c1cc(-c2ccccc2)nn1-c1ccccc1)N1CCN(S(=O)(=O)c2ccc(F)cc2)CC1 |  | inconclusive: 25.9 µM [inhibitor, single point]
50 | Cc1cc(C)c2cc(CN(Cc3cccs3)Cc3nnnn3CC3CCCO3)c(=O)[nH]c2c1 (stereo unspecified) |  | inconclusive: 20.6 µM [inhibitor, single point]
51 | COc1ccc(/C=C/c2ccc3cccc(O)c3n2)cc1Br |  | inconclusive: 9.2 µM [activator, partial curve]
52 | O=C(CSc1ccc(-c2cccc([N+](=O)[O-])c2)nn1)NCc1ccccc1 |  | inconclusive: 13 µM [inhibitor, partial curve]
53 | CCOC(=O)c1cc(-c2ccc(N)cc2)sc1N |  | inconclusive: 2.59 µM [activator, full curve]
54 | Cn1c(=O)c2c(nc(N3CCCCC3)n2CC(O)COc2ccccc2)n(C)c1=O (stereo unspecified) | inactive: -1.98% | 
55 | O=C(NC1=NCCS1)c1ccc(Cl)cc1 |  | inconclusive: 9.2 µM [activator, partial curve]
56 | CCCCCN1CC(O)=C(c2nc(-c3ccc(Cl)cc3)cs2)C1=N |  | inconclusive: 31.6 µM [activator, partial curve, poor fit]
57 | Cc1ccc(S(=O)(=O)c2ccc(Oc3cccc(C)c3)cc2)cc1 | inactive: 1.67% | 
58 | CN(CC(=O)Nc1cccc(S(=O)(=O)N2CCOCC2)c1)CC(=O)Nc1ccc(Cl)c(C(F)(F)F)c1 |  | active: 12.6 µM
59 | COC(=O)c1c(NC(NC(C)=O)C(Cl)(Cl)Cl)sc2c1CCCC2 (stereo unspecified) |  | inconclusive: 29.1 µM [inhibitor, single point]
60 | CCc1cccc2c(C(=O)CSc3nnc(C4CC4)o3)c[nH]c12 | inactive: 1.84% | 
61 | CC(=NNC(=O)c1cccs1)c1ccc2c(c1)OCCO2 |  | inconclusive: 11.6 µM [activator, partial curve]
62 | O=C(Cn1[nH]c(=O)c2ccccc2c1=O)OCC(=O)c1ccccc1 |  | inconclusive: 18.3 µM [activator, single point]
63 | c1ccc(COc2ccc(-c3sc(Nc4ccccc4)n[n+]3-c3ccccc3)cc2)cc1 |  | inconclusive: 16.4 µM [inhibitor, single point]
64 | CNC(=O)CN(c1cc(OCCOC)c(Cl)cc1Cl)S(=O)(=O)c1ccc(OC)cc1 |  | inconclusive: 25.9 µM [inhibitor, partial curve, poor fit]
65 | O=C(OCc1cc(Cl)ccc1OC(F)F)c1cc(S(=O)(=O)O)ccc1O | inactive: 0.518% | 
66 | O=C(COC(=O)C1CC2CCCC(C1)C2=O)Nc1nc(-c2ccc(F)c(F)c2)cs1 (stereo unspecified) |  | inconclusive: 8.2 µM [activator, partial curve, poor fit]
